For the test, the target named is T1, TBC1D8 (mouse (endogenous in mouse spleen)) (UniProt Q9Z1A9).
T1 sequence: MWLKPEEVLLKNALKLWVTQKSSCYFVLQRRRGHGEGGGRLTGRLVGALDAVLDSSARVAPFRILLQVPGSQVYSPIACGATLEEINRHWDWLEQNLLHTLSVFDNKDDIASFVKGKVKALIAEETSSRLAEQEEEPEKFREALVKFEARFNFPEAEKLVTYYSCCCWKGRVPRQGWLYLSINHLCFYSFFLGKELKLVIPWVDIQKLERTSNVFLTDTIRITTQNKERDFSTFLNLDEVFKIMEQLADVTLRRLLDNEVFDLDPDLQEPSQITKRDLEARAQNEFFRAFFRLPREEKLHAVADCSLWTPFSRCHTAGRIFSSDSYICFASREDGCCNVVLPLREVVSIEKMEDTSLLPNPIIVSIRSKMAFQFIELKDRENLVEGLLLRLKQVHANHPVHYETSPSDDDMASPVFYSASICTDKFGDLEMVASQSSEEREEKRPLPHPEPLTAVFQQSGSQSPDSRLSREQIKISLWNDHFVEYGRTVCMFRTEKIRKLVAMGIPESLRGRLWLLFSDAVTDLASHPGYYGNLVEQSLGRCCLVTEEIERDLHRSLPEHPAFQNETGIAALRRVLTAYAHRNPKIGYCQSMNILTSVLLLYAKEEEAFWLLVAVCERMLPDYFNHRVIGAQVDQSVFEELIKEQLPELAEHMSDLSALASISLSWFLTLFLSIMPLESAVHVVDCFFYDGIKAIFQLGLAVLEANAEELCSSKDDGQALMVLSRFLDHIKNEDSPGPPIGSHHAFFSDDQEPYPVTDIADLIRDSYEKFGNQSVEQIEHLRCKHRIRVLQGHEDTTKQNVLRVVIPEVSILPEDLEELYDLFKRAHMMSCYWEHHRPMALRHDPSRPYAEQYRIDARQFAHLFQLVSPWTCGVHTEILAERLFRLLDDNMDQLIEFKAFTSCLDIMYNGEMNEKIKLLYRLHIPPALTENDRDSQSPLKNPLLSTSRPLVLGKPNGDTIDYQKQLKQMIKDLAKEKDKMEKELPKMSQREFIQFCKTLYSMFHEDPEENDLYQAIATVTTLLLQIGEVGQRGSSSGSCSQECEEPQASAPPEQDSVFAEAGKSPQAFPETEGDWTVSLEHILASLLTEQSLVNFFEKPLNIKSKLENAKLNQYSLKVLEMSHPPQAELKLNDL
The test is described as follows: affinity purification with mass spectrometry.

Chains of the proteins cited; added tags and fusions are not shown.
UniProt P55258: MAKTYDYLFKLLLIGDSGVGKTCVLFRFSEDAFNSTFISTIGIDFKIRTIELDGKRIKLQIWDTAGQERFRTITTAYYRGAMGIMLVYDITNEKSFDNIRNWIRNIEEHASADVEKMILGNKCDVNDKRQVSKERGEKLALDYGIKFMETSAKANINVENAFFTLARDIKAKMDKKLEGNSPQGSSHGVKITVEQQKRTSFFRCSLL

No constants are given. Whether binding was seen depends on the method and setting. Binding seen in cells or lysates may run through a third protein. A yes stands for co-enrichment or nearness to the bait. Other partners may have been found.

Regarding RAB8A (from UniProt P55258 1-207), the binding result is reported as “binds”.

The values above are taken from article doi:10.1101/2025.10.31.25337980.
